# Laboratory results reported in the supplement of paper PMC9135407.
# “And” between values parts separate entries of the source, which are not always exact repeats. Equal values may be shown once. Where a name gives a salt, the structure may show the parent alone. ± gives the standard deviation of the averaged measurements. Some of the results follow. Baselines shift from plate to plate; read single values as rough.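 Assay uses culture-activated primary human stellate myofibroblasts; lipid droplet recovery indicates inactivation. Measured: proportion of Hoechst-counted cells over a plate-specific Bodipy cutoff, duplicate wells, DMSO and nortriptyline as per-plate negative and positive controls. A hit scores, control-normalized, above the plate's top-tenth-percentile nortriptyline wells or ranks among its three best wells. Final well concentrations not reported.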
# System: primary human hepatic stellate cells (donor 1)
# Experiment: percent Bodipy-positive cells; higher = more lipid droplet accumulation
# Conditions: 48 h
# [1] = library stock concentration: 10 mM
# [2] = library stock concentration: 3.33 mM
# [3] = library stock concentration: 80 uM
# [4] = library stock concentration: 400 uM
# [5] = library stock concentration: 1 mM
smiles,measurement,setting,value
CC(C)(CO)[C@@H](O)C(=O)NCCC(=O)NCCSSCCNC(=O)CCNC(=O)[C@H](O)C(C)(C)CO,percent Bodipy-positive cells,[1],21 ± 13%
O=C(O)c1cn(-c2ccc(F)cc2)c2cc(N3CCNCC3)c(F)cc2c1=O [Sarafloxacin hydrochloride],percent Bodipy-positive cells,library stock concentration: 4.7 mM,9.81 ± 0.9%
same,percent Bodipy-positive cells,[1],39.3 ± 5.4%
O=C(O)c1cn(-c2ccc(F)cc2)c2cc(N3CCNCC3)c(F)cc2c1=O [Sarafloxacin HCl],percent Bodipy-positive cells,library stock concentration: 5.2 mM,8.13 ± 0.57%
COc1cccc(/C=N/N=C/c2cccc(OC)c2)c1,percent Bodipy-positive cells,[1],5.66 ± 1.7%
C[C@@H](NCc1cc(Br)cc2[nH]c(=O)c(=O)[nH]c12)P(=O)(O)O,percent Bodipy-positive cells,[1],7 ± 2.9%
C[C@@H]1C[C@H]2[C@@H]3C[C@H](F)C4=CC(=O)C=C[C@]4(C)[C@@]3(F)[C@@H](O)C[C@]2(C)[C@@]1(O)C(=O)CO [Flumethasone],percent Bodipy-positive cells,,8.75 ± 2.8%
same,percent Bodipy-positive cells,[2],8.61 ± 0.93%
same,percent Bodipy-positive cells,library stock concentration: 4.9 mM,3.85 ± 0.64%
same,percent Bodipy-positive cells,[1],23.8 ± 3.9%
O=C(NC[C@H]1CN(c2ccc(N3CCOCC3=O)cc2)C(=O)O1)c1ccc(Cl)s1 [Rivaroxaban],percent Bodipy-positive cells,[2],5.98 ± 0.39%
same,percent Bodipy-positive cells,[1],17.4 ± 11%
CC(C)c1nn(-c2c(Cl)cccc2Cl)c2nc(Cc3ccc(OCCO)cc3)[nH]c(=O)c12,percent Bodipy-positive cells,[3],41.8 ± 8.6%
same,percent Bodipy-positive cells,[4],44.4 ± 6.2%
same,percent Bodipy-positive cells,library stock concentration: 2 mM,42.4 ± 0.96%
same,percent Bodipy-positive cells,[1],40.1 ± 1.2%
O=C(O)Cc1ccc(-c2ccccc2)cc1 [Felbinac],percent Bodipy-positive cells,,9.38 ± 1.2%
COc1cc(N2CCC(N3CCN(C)CC3)CC2)ccc1Nc1ncc(Cl)c(-c2c[nH]c3ccccc23)n1,percent Bodipy-positive cells,[3],15.9 ± 4.6%
same,percent Bodipy-positive cells,[4],30.9 ± 4.7%
Cc1cc2c(cc1CC(=O)c1sccc1S(=O)(=O)Nc1onc(C)c1Cl)OCO2 [Sitaxentan sodium],percent Bodipy-positive cells,[2],6.31 ± 3.5%
same,percent Bodipy-positive cells,[1],13.8 ± 3.8%
COc1ccc(CN2C(=O)C(=O)c3cc(OC(F)(F)F)ccc32)cc1,percent Bodipy-positive cells,[1],29.2 ± 2.5%
CCOC(=O)c1cnc2ccc(-c3cncc(NS(=O)(=O)c4ccccc4)c3)cn12,percent Bodipy-positive cells,[1],97.4 ± 2.6%
Cc1nnc(C(=O)NC(C)(C)c2nc(C(=O)NCc3ccc(F)cc3)c(O)c(=O)n2C)o1 [Raltegravir (MK-0518)],percent Bodipy-positive cells,[2],6.84 ± 0.21%
same,percent Bodipy-positive cells,[1],11.2 ± 1.1%
NCCC[C@](N)(C(=O)O)C(F)F (racemic) [DL-alpha-Difluoromethylornithine hydrochloride],percent Bodipy-positive cells,[1],40.9 ± 32%
CC(=O)OCC(=O)[C@@]1(O)[C@@H](C)C[C@H]2[C@@H]3CCC4=CC(=O)C=C[C@]4(C)[C@@]3(F)[C@@H](O)C[C@@]21C,percent Bodipy-positive cells,[1],20.7 ± 4.6%
c1ccc(NCc2ccc(CNc3ccccn3)cc2)nc1,percent Bodipy-positive cells,[2],9.67 ± 1.9%
same,percent Bodipy-positive cells,[1],21.3 ± 8.8%
Oc1ccc2ccccc2c1 [beta-NAPHTHOL],percent Bodipy-positive cells,[1],20.1 ± 5.6%
CCOC(=O)[C@@H](N)Cc1ccc(-c2cc(O[C@H](c3ccc(Cl)cc3-n3ccc(C)n3)C(F)(F)F)nc(N)n2)cc1 [Telotristat Etiprate (LX 1606 Hippurate)],percent Bodipy-positive cells,[2],18.5 ± 9.2%
same,percent Bodipy-positive cells,[1],92 ± 4.4%
CCCC/C=C\CCCCCCCC(=O)OC [Myristoleic Acid methyl ester],percent Bodipy-positive cells,[5],14.2 ± 7.7%
COc1c2occc2cc2ccc(=O)oc12 [Methoxsalen],percent Bodipy-positive cells,[2],10.5 ± 1.4%
same,percent Bodipy-positive cells,library stock concentration: 9.3 mM,3.75 ± 2.8%
COc1c2occc2cc2ccc(=O)oc12 [Methoxy-8-psoralen],percent Bodipy-positive cells,,26.6 ± 5.9%
N=C(NCCCCCCNC(=N)NC(=N)Nc1ccc(Cl)cc1)NC(=N)Nc1ccc(Cl)cc1 [Chlorhexidine],percent Bodipy-positive cells,,40.2 ± 14%
same,percent Bodipy-positive cells,library stock concentration: 3.5 mM,3.92 ± 0.69%
same,percent Bodipy-positive cells,[1],10.1 ± 3.3%
N=C(NCCCCCCNC(=N)NC(=N)Nc1ccc(Cl)cc1)NC(=N)Nc1ccc(Cl)cc1 [Chlorhexidine HCl],percent Bodipy-positive cells,[2],24.2 ± 5.1%
same,percent Bodipy-positive cells,[1],100%
NCc1ccccc1CC(=O)N[C@@H]1C(=O)N2C(C(=O)O)=C(CSc3nnnn3CC(=O)O)CS[C@H]12 [Ceforanide],percent Bodipy-positive cells,,27.7 ± 5.8%
CN1CCN(C2=Nc3ccccc3Oc3ccc(Cl)cc32)CC1,percent Bodipy-positive cells,[1],53.9 ± 2.9%
CN1CCN(C2=Nc3ccccc3Oc3ccc(Cl)cc32)CC1 [Loxapine Succinate],percent Bodipy-positive cells,[2],30.5 ± 9.9%
same,percent Bodipy-positive cells,[1],74.7 ± 3.5%
CN1CCN(C2=Nc3ccccc3Oc3ccc(Cl)cc32)CC1 [Loxapine succinate],percent Bodipy-positive cells,,52.5 ± 7.3%
same,percent Bodipy-positive cells,library stock concentration: 4.5 mM,39.1 ± 2.8%
same,percent Bodipy-positive cells,[1],78.7% and 66.3%
CC(C)CC(N)=O [Isovaleramide],percent Bodipy-positive cells,[2],14.7 ± 3.2%
same,percent Bodipy-positive cells,[1],50.6 ± 17%
CC(C)CC(N)=O,percent Bodipy-positive cells,[1],49.4 ± 5%
CC1c2cccc(O)c2C(O)=C2C(=O)C3(O)C(O)=C(C(N)=O)C(=O)C(N(C)C)C3C(O)C21 (configuration not stated) [Doxycycline hydrochloride],percent Bodipy-positive cells,[1],45.4 ± 7.9%
Clc1ccc(CCC(Cn2ccnc2)Sc2c(Cl)cccc2Cl)cc1 (configuration not stated),percent Bodipy-positive cells,[1],59.4 ± 12%
Clc1ccc(CCC(Cn2ccnc2)Sc2c(Cl)cccc2Cl)cc1 (configuration not stated) [Butoconazole nitrate],percent Bodipy-positive cells,,32 ± 1.6%
same,percent Bodipy-positive cells,[2],8.75 ± 0.48%
same,percent Bodipy-positive cells,[1],33.1 ± 12%
C[C@@]1(C(=O)Nc2ccc(F)nc2)CCCN1c1nc(Nc2cc(C3CC3)n[nH]2)c2cccn2n1,percent Bodipy-positive cells,[2],7.85 ± 2.3%
same,percent Bodipy-positive cells,[1],70.6 ± 8.9%
CC1(C)CC(Nc2nccc(-c3cnn(-c4ccccc4)c3)n2)CC(C)(C)N1,percent Bodipy-positive cells,[1],99.73 ± 0.38%
CN(C)C(=O)Nc1cccc(-c2ccc(N(C)C)cc2)c1 [Atglistatin],percent Bodipy-positive cells,[2],25.2 ± 0.82%
same,percent Bodipy-positive cells,[1],28.7 ± 1.6%
N[C@H](C(=O)O)c1ccc(O)c(C(=O)O)c1 [(S)-3-Carboxy-4-hydroxyphenylglycine],percent Bodipy-positive cells,[1],5.45 ± 2.5%
N#Cc1ccc(C(c2ccc(C#N)cc2)n2cncn2)cc1 [Letrozole],percent Bodipy-positive cells,,8.36 ± 1.1%
same,percent Bodipy-positive cells,[2],11.1 ± 3.4%
same,percent Bodipy-positive cells,library stock concentration: 7 mM,13.1 ± 6.5%
same,percent Bodipy-positive cells,[1],13.3 ± 3.3%
N#Cc1ccc(C(c2ccc(C#N)cc2)n2cncn2)cc1,percent Bodipy-positive cells,[1],7.38 ± 0.41%
CCCCC/C=C\C[C@H](O)/C=C/C=C\C/C=C\CCCC(=O)O,percent Bodipy-positive cells,library stock concentration: 100 uM,10.8 ± 6.6%
C[N+]1(C)CCC(OC(=O)C(O)(c2ccccc2)C2CCCC2)C1 (configuration not stated) [Glycopyrrolate],percent Bodipy-positive cells,,8.31 ± 0.69%
same,percent Bodipy-positive cells,library stock concentration: 5 mM,1.09 ± 1.5%
C[N+]1(C)CCC(OC(=O)C(O)(c2ccccc2)C2CCCC2)C1 (configuration not stated),percent Bodipy-positive cells,[1],5.93 ± 0.13%
C[C@@H]1C[C@H]2O[C@@H]2/C=C\C=C\C(=O)Cc2c(Cl)c(O)cc(O)c2C(=O)O1 [Radicicol],percent Bodipy-positive cells,[5],54.2 ± 5.8%
O=C(Nc1cccc(Cl)c1)c1ccccn1,percent Bodipy-positive cells,[2],8.37 ± 1%
same,percent Bodipy-positive cells,[1],13.7 ± 4.2%
O=C(Nc1ccc([N+](=O)[O-])cc1Cl)c1cc(Cl)ccc1O [Niclosamide],percent Bodipy-positive cells,library stock concentration: 6.1 mM,99.2 ± 0.21%
same,percent Bodipy-positive cells,[1],99.56 ± 0.0064%
Nc1c(CC(=O)O)cccc1C(=O)c1ccccc1 [Amfenac Sodium Monohydrate],percent Bodipy-positive cells,[2],8.18 ± 1.5%
same,percent Bodipy-positive cells,[1],25.6 ± 2.2%
CC(C)(C)C(=O)Nc1ccc2c(c1)C(=O)C(=O)c1ccccc1-2,percent Bodipy-positive cells,[2],96 ± 5.7%
same,percent Bodipy-positive cells,[1],100%
CN1CCCN(C(c2ccccc2)c2ccc(Cl)cc2)CC1.Cl.Cl (configuration not stated) [Homochlorcyclizine dihydrochloride],percent Bodipy-positive cells,,86.84 ± 0.2%
N=C1NC(=O)/C(=C/c2ccc(O)cc2)S1 [Mirin],percent Bodipy-positive cells,[5],9.05 ± 2.4%

# Random excerpt: three entries already listed
smiles,measurement,setting,value
O=C(Nc1cccc(Cl)c1)c1ccccn1,percent Bodipy-positive cells,[2],8.37 ± 1%
N=C1NC(=O)/C(=C/c2ccc(O)cc2)S1 [Mirin],percent Bodipy-positive cells,[5],9.05 ± 2.4%
N#Cc1ccc(C(c2ccc(C#N)cc2)n2cncn2)cc1 [Letrozole],percent Bodipy-positive cells,library stock concentration: 7 mM,13.1 ± 6.5%
